Several values for one entry are separate records, joined by “and”; a condition that tells them apart may be missing. Identical values can stand only once. Out of some 350,000 compounds screened, about 1,200 (0.34%) were called active. Inconclusive means that the source gave no clear call. Such entries were picked first, then a sample of the others. Calls follow the shape of the dose curve; as a rule, active = well fitted inhibition curve with a large enough effect; inconclusive = small, poorly fitted or top-dose-only effect; inactive = no such curve, though single readings can be large or run the other way. Potencies of inconclusive entries are doubtful fits and often do not repeat.
target: DNA repair nuclease/redox regulator APEX1 (Homo sapiens) (UniProt P27695); experiment: qHTS Assay for Inhibitors of the Human Apurinic/apyrimidinic Endonuclease 1 (APE1); conditions: recombinant APE1, TAMRA/BHQ-2 abasic DNA cleavage fluorescence; activity change, negative = inhibition: at 65.8 µM (top of the series); also: nearly all actives have a fitted effect of over 55% in size;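 as to activity change, negative = inhibition: plate controls were vehicle for no effect and reference inhibitor for full effect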
Outline: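 Step 1: APE1 (0.75 nM) with compound, 15 min RT. Step 2: add 50 nM fluorophore/quencher THF duplex. Step 3: three fluorescence reads 60 s apart (525/598 nm); read 3 minus read 1 = reaction progress.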
Potency is read from the fitted curve at half-maximal effect.

By UniProt entry, the sequences of proteins in these tests, tags left out.
UniProt P27695, whole entry, looked up: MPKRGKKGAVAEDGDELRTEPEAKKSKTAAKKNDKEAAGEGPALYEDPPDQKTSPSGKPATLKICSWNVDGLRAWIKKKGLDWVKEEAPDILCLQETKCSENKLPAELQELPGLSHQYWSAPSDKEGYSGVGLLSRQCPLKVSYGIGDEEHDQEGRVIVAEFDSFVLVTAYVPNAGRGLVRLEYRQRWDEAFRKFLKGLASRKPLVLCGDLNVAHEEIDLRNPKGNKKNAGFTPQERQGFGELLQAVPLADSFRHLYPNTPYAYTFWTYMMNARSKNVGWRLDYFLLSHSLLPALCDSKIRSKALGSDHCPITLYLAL

Row | SMILES | Potency | activity change, negative = inhibition
1 | Cc1cc(Cl)ccc1OCC(O)CN1C(C)CCCC1C (stereo not given) | inconclusive: 100 µM [inhibitor, partial curve, poor fit] | 
2 | CCOC(=O)N/N=C1/C[C@@H](O)[C@@H](O)[C@@H]2[C@@H]3C(=O)N(Cc4ccc5c(c4)OCO5)C(=O)[C@H]3CC[C@@H]12 | inconclusive: 3.55 µM [inhibitor, partial curve, poor fit] | 
3 | Cc1ccccc1NC(=O)CCC(=O)N/N=C/c1cccnc1 | inconclusive: 26.7 µM [inhibitor, single point] | 
4 | COc1ccc(-c2cc(C(=O)N3CCN(Cc4ccccc4)CC3)no2)cc1OC | inconclusive: 0.316 µM [inhibitor, partial curve, poor fit] | 
5 | O=C(NNC(=O)C1CC(c2cccs2)=NO1)Nc1ccc(Cl)cc1 (stereo not given) | inconclusive: 26.7 µM [inhibitor, single point] | 
6 | COc1ccc(Nc2cc(=O)n(-c3ccccc3)c3c2c(=O)n(C)c(=O)n3C)cc1 | inconclusive: 7.08 µM [inhibitor, single point] | 
7 | COc1ccc(/C=N/Nc2nc(Nc3ccccc3)nc(N3CCCC3)n2)cc1 | inconclusive: 0.0398 µM [inhibitor, full curve, poor fit] | 
8 | Cc1cc(Cl)c(S(=O)(=O)N2CCCC2)cc1OCC(N)=O | inconclusive: 39.8 µM [inhibitor, single point] | 
9 | Cc1cc(C)c(S(=O)(=O)/N=C2/C=C(SCC(=O)O)C(=O)c3ccccc32)cc1C | inconclusive: 11.2 µM [inhibitor, partial curve, poor fit] | 
10 | O=C1CSc2ccc(C(=O)O)cc2N1 | inconclusive: 39.8 µM [inhibitor, single point] | 
11 | CC(C)NC[C@@H](O)COc1ccc(CC(N)=O)cc1 | inconclusive: 44.7 µM [inhibitor, single point] | 
12 | CCN(CC)CCNC(=O)c1cc2c(=O)n(C)c3ccccc3c2n1C | inconclusive: 0.447 µM [inhibitor, partial curve] | 
13 | O=C(CNC(=O)c1cccc(Cl)c1)N/N=C/C=C/c1ccccc1 | inconclusive: 0.631 µM [inhibitor, single point] | 
14 | CCCCCCCC/C=C\CCCCCCCC(N)=O | inactive | 
15 | Cc1ccc(NC(=O)CSc2ncn(-c3ccccc3)n2)cc1C |  | inactive: 12.5%
16 | O=C(N/C=C/c1ccco1)OCc1ccccc1 | inconclusive: 35.5 µM [inhibitor, single point] | 
17 | O=S(=O)(Nc1cccc(-c2cn3cccnc3n2)c1)c1ccccc1 | inconclusive: 0.0056 µM [inhibitor, full curve, poor fit] | 
18 | COC(=O)[C@@H](NC(=O)O[C@@H]1C(=O)c2cc(OC)ccc2O[C@H]1c1ccc(OC)c(Br)c1)C(C)C |  | inactive: 18.7%
19 | CSc1nnc(-c2ccccc2N=Cc2c(C)[nH]n(-c3ccc4ccccc4c3)c2=O)c(=O)[nH]1 | inconclusive: 44.7 µM [inhibitor, single point] | 
20 | CCN1CCN(C(=O)c2cc(S(=O)(=O)Nc3ccc(S(C)(=O)=O)cc3)ccc2Cl)CC1 | inconclusive: 44.7 µM [inhibitor, single point] | 

Row | SMILES | Potency | activity change, negative = inhibition
21 | CC(=O)N1CCN(c2ccc(NCc3ccc4c(c3)OCO4)cc2)CC1 | inconclusive: 12.6 µM [inhibitor, partial curve, poor fit] | 
22 | O=C(NN1C(=O)/C(=C/C=C/c2ccco2)SC1=S)c1ccccc1O | active: 2 µM | 
23 | O=C(O)CCCCCN1C(=O)/C(=C/c2ccncc2)SC1=S |  | inactive: 2.44%
24 | O=C1CCCC(O)=C1N=Nc1cccc(C(=O)O)c1 | active: 10 µM | 
25 | COc1ccc(N)c2c1C(=O)c1ccccc1C2=O | inconclusive: 11.2 µM [inhibitor, partial curve] | 
26 | O=C(/C=C/c1ccccc1Cl)Nc1ccc2c(c1)C(=O)NC2=O | active: 12.6 µM | 
27 | Cc1ccc(S(=O)(=O)N2CCN(C(=O)CSc3ncn[nH]3)CC2)c(C)c1 |  | inactive: -1.9%
28 | Cc1ccc(C(=O)C(C)OC(=O)C2=COCCO2)cc1C (stereo not given) | inconclusive: 22.4 µM [inhibitor, partial curve, poor fit] | 
29 | CCCCOc1ccc(C(=O)OCC(=O)Nc2cc(C)c(C)cc2[N+](=O)[O-])cc1 | inconclusive: 0.0126 µM [inhibitor, full curve, poor fit] | 
30 | CCOc1ccc(NC(=O)CCS(=O)(=O)c2ccc3c(c2)CCCN3C(C)=O)cc1 | inconclusive: 0.0126 µM [inhibitor, full curve, poor fit] | 
31 | Nc1nc2nc(Cl)[nH]c2c(=O)[nH]1 | inconclusive: 31.6 µM [inhibitor, single point] | 
32 | O=C(/C=C/c1ccc(O)cc1)c1ccc(O)cc1O | inconclusive: 6.31 µM [inhibitor, single point] and inconclusive: 8.91 µM [inhibitor, single point] | 
33 | Cc1ccccc1Nc1nc(N)nc(CSCc2c(C)noc2C)n1 | inconclusive: 35.5 µM [inhibitor, partial curve] | 
34 | COc1ccc(OC)c(/C=N/c2oc(-c3ccco3)c(-c3ccco3)c2C#N)c1 | inconclusive: 25.1 µM [inhibitor, partial curve] | 
35 | Nc1cccc(S(=O)(=O)O)c1 | inconclusive: 39.8 µM [inhibitor, single point] | 
36 | NCCCC[C@H]1CN=C(N)N1CCC12CC3CC(CC(C3)C1)C2 | inconclusive: 44.7 µM [inhibitor, single point] | 
37 | COc1ccc(CCNC(=O)c2csc3c2CCCC3)cc1 | inconclusive: 22.4 µM [inhibitor, partial curve, poor fit] | 
38 | N=C1/C(=C\c2ccc(-c3cc(Cl)cc(Cl)c3)o2)C(=O)N=C2SC=C(c3ccccc3)N12 |  | inactive: 2.12%
39 | CCN(CC(=O)Nc1sc2c(c1C#N)CCC(C)C2)CC(=O)NC1CCS(=O)(=O)C1 (stereo not given) | inconclusive: 1 µM [inhibitor, partial curve, poor fit] | 
40 | CCOc1cccc(-c2c(C(=O)N/N=C/c3ccc(Br)cc3)nnn2-c2nonc2N)c1 | inconclusive: 8.44 µM [inhibitor, partial curve, poor fit] | 

From PubChem BioAssay AID2517 (National Center for Advancing Translational Sciences (NCATS), 2010)
